Our source for the melting temperature shift values is the supplement of paper PMC12595434, “Development of retinoid nuclear receptor pathway antagonists through targeting aldehyde dehydrogenase 1A3” (iScience, 2025).

Chains of the proteins cited; added tags and fusions are not shown. Lines headed by an entry give the natural chain unless they say otherwise; changes in a name come on top.
UniProt Q96EK9: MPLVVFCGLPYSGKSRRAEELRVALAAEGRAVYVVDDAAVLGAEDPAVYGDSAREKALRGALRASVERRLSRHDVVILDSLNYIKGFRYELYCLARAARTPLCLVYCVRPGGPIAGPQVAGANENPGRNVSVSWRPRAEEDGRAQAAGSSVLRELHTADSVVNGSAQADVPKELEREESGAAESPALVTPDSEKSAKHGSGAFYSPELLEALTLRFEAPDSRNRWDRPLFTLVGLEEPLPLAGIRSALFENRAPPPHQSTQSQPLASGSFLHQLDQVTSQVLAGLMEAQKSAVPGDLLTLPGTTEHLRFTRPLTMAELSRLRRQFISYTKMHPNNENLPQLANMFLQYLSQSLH
UniProt Q96LD4: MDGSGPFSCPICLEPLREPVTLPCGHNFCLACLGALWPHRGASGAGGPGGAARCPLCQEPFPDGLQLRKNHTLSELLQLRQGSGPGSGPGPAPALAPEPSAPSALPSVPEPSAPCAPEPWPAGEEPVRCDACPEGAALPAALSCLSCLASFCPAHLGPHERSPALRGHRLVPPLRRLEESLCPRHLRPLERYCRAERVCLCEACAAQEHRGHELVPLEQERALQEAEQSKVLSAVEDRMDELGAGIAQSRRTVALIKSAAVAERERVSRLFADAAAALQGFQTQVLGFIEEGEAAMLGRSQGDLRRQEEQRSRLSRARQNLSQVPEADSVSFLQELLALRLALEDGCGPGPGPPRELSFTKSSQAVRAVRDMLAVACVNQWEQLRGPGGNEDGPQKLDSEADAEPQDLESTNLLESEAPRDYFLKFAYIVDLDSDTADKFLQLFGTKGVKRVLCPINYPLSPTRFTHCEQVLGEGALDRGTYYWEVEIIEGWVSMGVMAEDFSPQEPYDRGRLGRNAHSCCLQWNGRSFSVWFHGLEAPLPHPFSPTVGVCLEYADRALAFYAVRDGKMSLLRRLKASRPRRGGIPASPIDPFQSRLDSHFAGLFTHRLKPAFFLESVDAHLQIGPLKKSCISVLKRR
UniProt Q96KQ7: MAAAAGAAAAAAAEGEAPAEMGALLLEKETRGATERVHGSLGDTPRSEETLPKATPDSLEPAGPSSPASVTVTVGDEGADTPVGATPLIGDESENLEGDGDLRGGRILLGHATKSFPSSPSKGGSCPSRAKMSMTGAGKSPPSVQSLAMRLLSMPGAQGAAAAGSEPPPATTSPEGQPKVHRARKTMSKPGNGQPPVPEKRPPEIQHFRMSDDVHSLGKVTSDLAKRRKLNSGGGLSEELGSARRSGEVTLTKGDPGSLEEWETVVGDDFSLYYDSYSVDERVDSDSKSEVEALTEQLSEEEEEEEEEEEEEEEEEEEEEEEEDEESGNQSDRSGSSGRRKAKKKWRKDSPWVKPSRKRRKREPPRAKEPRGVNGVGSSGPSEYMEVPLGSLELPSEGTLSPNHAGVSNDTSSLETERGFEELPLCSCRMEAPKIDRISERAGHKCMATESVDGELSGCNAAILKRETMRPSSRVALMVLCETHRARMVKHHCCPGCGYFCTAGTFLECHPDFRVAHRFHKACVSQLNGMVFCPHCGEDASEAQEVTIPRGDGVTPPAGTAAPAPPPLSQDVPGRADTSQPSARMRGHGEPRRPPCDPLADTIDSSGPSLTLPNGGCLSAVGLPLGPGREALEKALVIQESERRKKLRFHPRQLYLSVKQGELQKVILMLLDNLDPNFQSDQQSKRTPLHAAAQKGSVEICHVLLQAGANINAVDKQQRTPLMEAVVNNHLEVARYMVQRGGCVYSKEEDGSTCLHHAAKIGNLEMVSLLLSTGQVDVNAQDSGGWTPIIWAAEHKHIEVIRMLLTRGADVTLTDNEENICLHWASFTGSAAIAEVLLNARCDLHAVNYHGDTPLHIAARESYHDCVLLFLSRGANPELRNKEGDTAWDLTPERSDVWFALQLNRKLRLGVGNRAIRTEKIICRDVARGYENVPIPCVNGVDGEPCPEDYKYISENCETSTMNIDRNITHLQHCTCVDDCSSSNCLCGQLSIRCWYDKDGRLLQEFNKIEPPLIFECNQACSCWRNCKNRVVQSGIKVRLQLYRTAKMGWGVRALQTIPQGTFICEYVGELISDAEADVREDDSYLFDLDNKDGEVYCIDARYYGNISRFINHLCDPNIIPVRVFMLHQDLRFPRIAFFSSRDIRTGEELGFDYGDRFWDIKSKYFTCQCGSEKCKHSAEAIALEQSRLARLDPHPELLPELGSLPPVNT
UniProt Q96PZ0: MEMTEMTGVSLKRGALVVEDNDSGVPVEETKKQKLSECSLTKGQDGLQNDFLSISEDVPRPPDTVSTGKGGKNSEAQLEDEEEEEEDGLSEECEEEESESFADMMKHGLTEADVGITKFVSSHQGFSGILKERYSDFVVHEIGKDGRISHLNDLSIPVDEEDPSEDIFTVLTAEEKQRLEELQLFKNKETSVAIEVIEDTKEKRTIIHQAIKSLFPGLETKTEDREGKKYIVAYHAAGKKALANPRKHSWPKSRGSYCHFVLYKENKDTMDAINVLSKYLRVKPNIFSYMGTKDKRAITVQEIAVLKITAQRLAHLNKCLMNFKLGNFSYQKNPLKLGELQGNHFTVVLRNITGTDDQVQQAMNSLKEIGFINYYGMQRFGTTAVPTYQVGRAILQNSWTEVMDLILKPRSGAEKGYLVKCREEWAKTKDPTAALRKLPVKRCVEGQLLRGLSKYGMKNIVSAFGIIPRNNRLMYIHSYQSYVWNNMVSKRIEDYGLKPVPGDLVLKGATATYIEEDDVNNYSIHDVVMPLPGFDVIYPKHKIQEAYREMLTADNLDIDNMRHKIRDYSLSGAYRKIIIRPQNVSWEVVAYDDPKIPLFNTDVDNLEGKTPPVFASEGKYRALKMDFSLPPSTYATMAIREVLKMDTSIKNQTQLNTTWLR
UniProt Q96FH0: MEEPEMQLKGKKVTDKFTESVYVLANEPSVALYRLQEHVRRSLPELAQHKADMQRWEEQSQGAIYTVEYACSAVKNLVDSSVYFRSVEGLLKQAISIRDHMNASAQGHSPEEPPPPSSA
UniProt Q96S38: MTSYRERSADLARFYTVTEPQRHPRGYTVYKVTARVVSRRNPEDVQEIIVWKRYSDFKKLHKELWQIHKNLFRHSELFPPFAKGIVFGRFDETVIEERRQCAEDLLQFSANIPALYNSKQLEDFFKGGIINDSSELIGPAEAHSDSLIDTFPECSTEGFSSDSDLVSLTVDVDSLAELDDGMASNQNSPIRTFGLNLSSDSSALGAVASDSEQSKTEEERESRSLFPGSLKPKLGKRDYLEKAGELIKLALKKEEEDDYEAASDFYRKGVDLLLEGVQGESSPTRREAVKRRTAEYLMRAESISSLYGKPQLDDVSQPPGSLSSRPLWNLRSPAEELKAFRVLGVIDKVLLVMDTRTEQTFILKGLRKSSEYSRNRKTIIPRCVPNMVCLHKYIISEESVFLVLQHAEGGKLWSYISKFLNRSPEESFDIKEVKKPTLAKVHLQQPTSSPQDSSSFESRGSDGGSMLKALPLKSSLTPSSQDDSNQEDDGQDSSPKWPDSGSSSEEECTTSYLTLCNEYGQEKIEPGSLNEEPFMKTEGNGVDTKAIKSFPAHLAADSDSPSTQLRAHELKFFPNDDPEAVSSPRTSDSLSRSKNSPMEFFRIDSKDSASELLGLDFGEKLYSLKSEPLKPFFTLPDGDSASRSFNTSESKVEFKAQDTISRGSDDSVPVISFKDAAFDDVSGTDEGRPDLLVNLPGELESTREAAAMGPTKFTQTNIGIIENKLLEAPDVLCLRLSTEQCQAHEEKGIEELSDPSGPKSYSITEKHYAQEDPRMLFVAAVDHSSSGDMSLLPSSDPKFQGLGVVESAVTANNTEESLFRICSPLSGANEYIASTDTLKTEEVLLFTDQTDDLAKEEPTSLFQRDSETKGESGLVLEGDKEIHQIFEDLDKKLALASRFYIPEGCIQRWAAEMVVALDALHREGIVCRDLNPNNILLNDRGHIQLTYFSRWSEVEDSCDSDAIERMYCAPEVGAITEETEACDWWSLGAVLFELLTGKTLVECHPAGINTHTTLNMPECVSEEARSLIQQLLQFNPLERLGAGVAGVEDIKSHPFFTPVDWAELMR
UniProt Q96EP0: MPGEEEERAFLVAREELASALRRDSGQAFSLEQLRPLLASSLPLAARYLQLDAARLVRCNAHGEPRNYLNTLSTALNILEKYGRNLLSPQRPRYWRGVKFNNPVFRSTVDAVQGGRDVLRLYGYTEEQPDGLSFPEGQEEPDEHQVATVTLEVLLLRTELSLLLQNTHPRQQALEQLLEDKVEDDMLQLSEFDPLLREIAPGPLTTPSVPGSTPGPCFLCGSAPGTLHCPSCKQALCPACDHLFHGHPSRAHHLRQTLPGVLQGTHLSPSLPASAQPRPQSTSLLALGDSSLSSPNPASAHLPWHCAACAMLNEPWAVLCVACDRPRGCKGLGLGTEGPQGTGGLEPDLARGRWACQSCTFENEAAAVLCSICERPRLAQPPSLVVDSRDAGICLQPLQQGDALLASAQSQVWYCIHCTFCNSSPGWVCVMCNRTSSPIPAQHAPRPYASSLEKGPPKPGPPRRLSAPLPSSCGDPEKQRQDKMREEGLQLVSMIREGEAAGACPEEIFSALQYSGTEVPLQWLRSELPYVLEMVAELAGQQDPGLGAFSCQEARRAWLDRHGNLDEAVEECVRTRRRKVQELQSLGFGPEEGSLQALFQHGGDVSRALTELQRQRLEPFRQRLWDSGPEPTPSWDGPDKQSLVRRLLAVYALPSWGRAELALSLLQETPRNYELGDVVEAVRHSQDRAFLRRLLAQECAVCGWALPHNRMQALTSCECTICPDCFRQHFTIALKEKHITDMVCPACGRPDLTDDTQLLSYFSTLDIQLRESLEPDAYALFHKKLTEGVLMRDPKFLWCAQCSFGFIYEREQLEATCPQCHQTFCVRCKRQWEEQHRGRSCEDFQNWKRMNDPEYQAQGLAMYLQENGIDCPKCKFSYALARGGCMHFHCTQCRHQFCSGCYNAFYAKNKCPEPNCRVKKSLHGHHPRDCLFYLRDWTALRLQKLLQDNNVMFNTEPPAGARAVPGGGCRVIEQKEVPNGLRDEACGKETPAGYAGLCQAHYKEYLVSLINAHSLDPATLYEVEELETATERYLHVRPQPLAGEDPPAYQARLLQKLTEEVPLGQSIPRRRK
UniProt Q96QR8: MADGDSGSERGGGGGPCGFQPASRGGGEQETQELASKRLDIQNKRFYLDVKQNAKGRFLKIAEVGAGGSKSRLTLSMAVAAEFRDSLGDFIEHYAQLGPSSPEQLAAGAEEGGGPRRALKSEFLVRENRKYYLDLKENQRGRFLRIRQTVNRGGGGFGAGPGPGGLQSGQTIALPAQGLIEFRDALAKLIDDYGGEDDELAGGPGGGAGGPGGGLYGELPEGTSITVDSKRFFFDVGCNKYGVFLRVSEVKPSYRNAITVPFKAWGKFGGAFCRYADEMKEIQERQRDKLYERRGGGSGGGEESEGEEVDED

Compound in this experiment: CCc1cnccc1C(=O)Nc1cc2c(cc1F)NC(=O)CC2
Kind of experiment: melting temperature shift (DMSO Tm minus MBE1-treated Tm) in cellular thermal proteome profiling; higher = less thermal stabilization by MBE1 (negative = stabilized by MBE1). To be noted: A375.

This is one part of the list. Single values of this set are uncertain.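 Tm was set to 64 °C where no melting was found, and many curves are irregular.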

MTMR9 (UniProt Q96QG7): the melting temperature shift is 1.06 °C (MBE1 concentration: 100 nM) and 0.385 °C (MBE1 concentration: 1 uM).

With NEURL4 (UniProt Q96JN8), the melting temperature shift is, setting by setting: (MBE1 concentration: 100 nM) 0.36 °C; (MBE1 concentration: 1 uM) 0.368 °C.

In the case of KTI12 (UniProt Q96EK9), the melting temperature shift is 0.0659 °C (MBE1 concentration: 100 nM) and 0.113 °C (MBE1 concentration: 1 uM).

With TRIM47 (UniProt Q96LD4), the melting temperature shift is, setting by setting: (MBE1 concentration: 100 nM) -0.865 °C; (MBE1 concentration: 1 uM) -0.711 °C.

Consider EHMT2 (UniProt Q96KQ7), for which the melting temperature shift is, setting by setting: (MBE1 concentration: 100 nM) -0.583 °C; (MBE1 concentration: 1 uM) -0.198 °C.

PUS7 (UniProt Q96PZ0): the melting temperature shift (MBE1 concentration: 100 nM) was -0.698 °C and the melting temperature shift (MBE1 concentration: 1 uM) was -0.424 °C.

With IPO9 (UniProt Q96P70), the melting temperature shift (MBE1 concentration: 100 nM) is -0.822 °C and the melting temperature shift (MBE1 concentration: 1 uM) was determined as 0.134 °C.

With MED8 (UniProt Q96G25), the melting temperature shift (MBE1 concentration: 100 nM) came out at 0.275 °C and the melting temperature shift (MBE1 concentration: 1 uM) was -0.311 °C.

As for UniProt Q96FH0, the melting temperature shift by setting is: (MBE1 concentration: 100 nM) -0.215 °C; (MBE1 concentration: 1 uM) 1.3 °C.

As for ERBB2IP (UniProt Q96RT1), the melting temperature shift reads like this: (MBE1 concentration: 100 nM) 0.946 °C; (MBE1 concentration: 1 uM) 0.372 °C.

For ZFYVE19 (UniProt Q96K21), the melting temperature shift (MBE1 concentration: 100 nM) is -0.659 °C and the melting temperature shift (MBE1 concentration: 1 uM) was 0.554 °C.

With FGD4 (UniProt Q96M96), the melting temperature shift is -0.729 °C (MBE1 concentration: 100 nM) and -1.43 °C (MBE1 concentration: 1 uM).

Turning to IFT140 (UniProt Q96RY7), the melting temperature shift by setting is: (MBE1 concentration: 100 nM) -1.91 °C; (MBE1 concentration: 1 uM) -1.62 °C.

For the target RPS6KC1 (UniProt Q96S38), the melting temperature shift reads like this: (MBE1 concentration: 100 nM) -0.0177 °C; (MBE1 concentration: 1 uM) 0.313 °C.

Consider DCUN1D1 (UniProt Q96GG9), for which the melting temperature shift by setting is: (MBE1 concentration: 100 nM) 0.25 °C; (MBE1 concentration: 1 uM) 0.256 °C.

Regarding VPS35 (UniProt Q96QK1), the melting temperature shift was -0.642 °C (MBE1 concentration: 100 nM) and 0.55 °C (MBE1 concentration: 1 uM).

Consider RNF31 (UniProt Q96EP0), for which the melting temperature shift by setting is: (MBE1 concentration: 100 nM) -1.11 °C; (MBE1 concentration: 1 uM) -1.75 °C.

For the target ZFR (UniProt Q96KR1), the melting temperature shift was -0.177 °C (MBE1 concentration: 100 nM) and 0.216 °C (MBE1 concentration: 1 uM).

In the case of VPS13A (UniProt Q96RL7), the melting temperature shift was -0.439 °C (MBE1 concentration: 100 nM) and 0.531 °C (MBE1 concentration: 1 uM).

On to PURB (UniProt Q96QR8), for which the melting temperature shift reads like this: (MBE1 concentration: 100 nM) -0.805 °C; (MBE1 concentration: 1 uM) 0.519 °C.

On to UniProt Q96HA1, for which the melting temperature shift reads like this: (MBE1 concentration: 100 nM) 0.763 °C; (MBE1 concentration: 1 uM) 0.965 °C.

UniProt Q96ES6: the melting temperature shift was -1.81 °C (MBE1 concentration: 100 nM) and -1.13 °C (MBE1 concentration: 1 uM).

Turning to KCTD15 (UniProt Q96SI1), the melting temperature shift by setting is: (MBE1 concentration: 100 nM) -1.09 °C; (MBE1 concentration: 1 uM) 1.12 °C.
